Reference: PubChem BioAssay AID1259308 (NCATS, 2017)
In all, the deposit lists about 59,000 reagents; shown is a part drawn at random. Of all reagents, about 1,510 (2.6%) were called active. 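Calls use total luciferase alone and ignore viability, so some active siRNAs may act by altering cell number.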 Entries without a mark were called inactive. The numbers tell different reagents against one gene apart. Further read-outs or replicates are left out here. No sequences are given here.

- Assay: 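Knock-downs that increase output of a recombinant reporter protein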 (primary screen)
- Cells: human HEK293 embryonic kidney cells stably expressing firefly luciferase (HEK-CMV-Luc2-Hygro)
- Reagent: single siRNA against human genes, 0.8 pmol siRNA per well
- Time to read-out: 72 h
- Read-out: 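Reporter luminescence and viable-cell signal on separate replicate plates, given as percent of non-targeting control and median/MAD z-scores, plus per-cell luciferase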
- Scale: total luciferase, z-score: higher = more reporter protein produced
- Call rule: 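An siRNA counts as active if its total luciferase robust z-score exceeds 3; genes with two or more such siRNAs out of three were retested with fresh siRNAs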
- Meaning of the calls: active = raised luciferase; inactive = no rise

{"Target gene": "FADS1 (fatty acid desaturase 1)", "reagent no.": 1, "total luciferase, z-score": 0.974}
{"Target gene": "FADS1 (fatty acid desaturase 1)", "reagent no.": 2, "total luciferase, z-score": -1.52}
{"Target gene": "FADS1 (fatty acid desaturase 1)", "reagent no.": 3, "total luciferase, z-score": -0.334}
{"Target gene": "BBS5 (Bardet-Biedl syndrome 5)", "reagent no.": 1, "total luciferase, z-score": 0.278}
{"Target gene": "BBS5 (Bardet-Biedl syndrome 5)", "reagent no.": 2, "total luciferase, z-score": 1.5}
{"Target gene": "BBS5 (Bardet-Biedl syndrome 5)", "reagent no.": 3, "total luciferase, z-score": -0.343}

Reformatted: entries from further up.
Target gene	reagent no.	total luciferase, z-score
BBS5 (Bardet-Biedl syndrome 5)	2	1.5
BBS5 (Bardet-Biedl syndrome 5)	3	-0.343

Additional entries:
{"Target gene": "VPREB1 (V-set pre-B cell surrogate light chain 1)", "reagent no.": 1, "total luciferase, z-score": 0.436}
{"Target gene": "VPREB1 (V-set pre-B cell surrogate light chain 1)", "reagent no.": 2, "total luciferase, z-score": 0.245}
{"Target gene": "VPREB1 (V-set pre-B cell surrogate light chain 1)", "reagent no.": 3, "total luciferase, z-score": 2.99}
{"Target gene": "FHOD3 (formin homology 2 domain containing 3)", "reagent no.": 1, "total luciferase, z-score": -0.597}
{"Target gene": "FHOD3 (formin homology 2 domain containing 3)", "reagent no.": 2, "total luciferase, z-score": -0.499}
{"Target gene": "FHOD3 (formin homology 2 domain containing 3)", "reagent no.": 3, "total luciferase, z-score": 1.06}
